# Data from the supplement of paper PMC8728848.
# The other results are listed elsewhere or left out.
# B1: PX14379D-pdi-530-26-530 (Parabacteroides distasonis) (protein)
# chain: DETVYDKLPADDFGQSTAELNALIGNSHNTMKKFWTEYMHLSECSGSMAVTPTRRGGDWYDGGQYREIYMHTWTSQTSRVKSAWKAATEAIGTCNEAIRKLQNSEILTEEEKAQDVADLRGVRAFWIYVMMDYWGNIPLLTEFHPTDKVFPGNSSRQEVFDWLIQEVEEIKDICPPATTENYGSFTQGAAYSLLAKLYLNAEAWGVTFSGNAYQKVIDNCDKVMAMGYILEPNWKDNFSVTNENSKEAILAATFSSSDTGNDGNVKNELHNNTLHYKDYLSLGITASGTWNGICAQPEYVRLFDEEDARLDGTFLTGLMIDKSTGKPIMTDHNNELNHTIDVNMIPGMEYDGTNWSAVEQHDGARCFKWEFASDLTSSMGNDFHIFRLADIYLMKAEALLRGGGSVSEATALVNTIRERGYGNSDHNYATVTLKEVQLERRLELAWEVYSRQDDIRFGCFTTGMWPQSNCERKADDYLKLLPVSQDAWQVNPNLKQNPGYAAFSK
# Tests used:
# Assay in all cases: glycan array binding signal (z-score within array); higher = stronger binding
# Settings in all cases: glycan notation: IUPAC condensed, linker removed
# GalNAc(b1-3)Gal = biological target: GalNAc(b1-3)Gal
# Outline: (§1)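 Glycan array data came from 3228 arrays in the Consortium for Functional Glycomics database, and only arrays with an available protein sequence were kept. Glycan names were put into IUPAC-condensed notation, and columns mapping to the same glycan were averaged. The binding signal is a within-array Z-score, averaged across arrays of one protein sequence run at different concentrations or buffers and across linkers. A negative Z-score can be read as non-binding.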
# [1] = biological target: GalNAc(b1-3)Gal(a1-4)Gal(b1-4)GlcNAc
# Outline: as §1
# [2] = biological target: GalNAc(b1-3)Gal(a1-4)Gal(b1-4)GlcNAc(b1-3)Gal(b1-4)Glc
# Outline: as §1
# [3] = biological target: GalNAc(b1-3)Gal(a1-6)Gal(b1-4)Glc
# Outline: as §1
# GalNAc(b1-3)GalNAc = biological target: GalNAc(b1-3)GalNAc
# Outline: as §1
# GalNAc(b1-3)GlcNAc = biological target: GalNAc(b1-3)GlcNAc
# Outline: as §1
# GalNAc(b1-4)Gal(b1-4)Glc = biological target: GalNAc(b1-4)Gal(b1-4)Glc
# Outline: as §1
# GalNAc(b1-4)GlcNAc = biological target: GalNAc(b1-4)GlcNAc
# Outline: as §1
# [4] = biological target: GalNAc(b1-4)GlcNAc(b1-2)Man
# Outline: as §1
# [5] = biological target: GalNAc(b1-4)GlcNAc(b1-2)Man(a1-3)[GalNAc(b1-4)GlcNAc(b1-2)Man(a1-6)]Man(b1-4)GlcNAc(b1-4)GlcNAc
# Outline: as §1
# [6] = biological target: GalNAc(b1-4)GlcNAc(b1-3)GalNAc(b1-4)GlcNAc
# Outline: as §1
# GalNAc(b1-4)GlcNAc6S = biological target: GalNAc(b1-4)GlcNAc6S
# Outline: as §1
# GalNAc(b1-6)GalNAc = biological target: GalNAc(b1-6)GalNAc
# Outline: as §1
# GalNAc3S(b1-4)GlcNAc = biological target: GalNAc3S(b1-4)GlcNAc
# Outline: as §1
# GalNAc3S(b1-4)GlcNAc3S = biological target: GalNAc3S(b1-4)GlcNAc3S
# Outline: as §1
# [7] = biological target: GalNAc3S(b1-4)[Fuc(a1-3)]GlcNAc
# Outline: as §1
# GalNAc4S6S(b1-4)GlcNAc = biological target: GalNAc4S6S(b1-4)GlcNAc
# Outline: as §1
# GalNAc6S(b1-4)GlcNAc = biological target: GalNAc6S(b1-4)GlcNAc
# Outline: as §1
# Glc(a1-4)Glc = biological target: Glc(a1-4)Glc
# Outline: as §1
# [8] = biological target: Glc(a1-4)Glc(a1-4)Glc(a1-4)Glc
# Outline: as §1
# Glc(a1-6)Glc(a1-6)Glc = biological target: Glc(a1-6)Glc(a1-6)Glc
# Outline: as §1
# [9] = biological target: Glc(a1-6)Glc(a1-6)Glc(a1-6)Glc
# Outline: as §1
# Glc(b1-4)Glc = biological target: Glc(b1-4)Glc
# Outline: as §1
# Glc(b1-6)Glc = biological target: Glc(b1-6)Glc
# Outline: as §1
# GlcA(b1-3)Gal = biological target: GlcA(b1-3)Gal
# Outline: as §1
# GlcA(b1-3)GlcNAc = biological target: GlcA(b1-3)GlcNAc
# Outline: as §1
# GlcA(b1-6)Gal = biological target: GlcA(b1-6)Gal
# Outline: as §1
# [10] = biological target: GlcA3S(b1-3)Gal(b1-4)GlcNAc(b1-2)Man
# Outline: as §1
# [11] = biological target: GlcA3S(b1-3)Gal(b1-4)GlcNAc(b1-3)Gal(b1-4)Glc
# Outline: as §1
# [12] = biological target: GlcNAc(a1-3)Gal(b1-4)GlcNAc
# Outline: as §1
# [13] = biological target: GlcNAc(a1-4)Gal(b1-3)GlcNAc
# Outline: as §1
# [14] = biological target: GlcNAc(a1-4)Gal(b1-4)GalNAc
# Outline: as §1
# [15] = biological target: GlcNAc(a1-4)Gal(b1-4)GlcNAc
# Outline: as §1
# [16] = biological target: GlcNAc(a1-4)Gal(b1-4)GlcNAc(b1-3)Gal(b1-4)Glc
# Outline: as §1
# [17] = biological target: GlcNAc(a1-4)Gal(b1-4)GlcNAc(b1-3)Gal(b1-4)GlcNAc
# Outline: as §1
# [18] = biological target: GlcNAc(a1-4)Gal(b1-4)GlcNAc(b1-3)Gal(b1-4)GlcNAc(b1-3)Gal(b1-4)GlcNAc
# Outline: as §1
# [19] = biological target: GlcNAc(a1-4)Gal(b1-4)GlcNAc(b1-3)Gal(b1-4)[Fuc(a1-3)]GlcNAc(b1-3)Gal(b1-4)[Fuc(a1-3)]GlcNAc
# Outline: as §1
# [20] = biological target: GlcNAc(a1-6)Gal(b1-4)GlcNAc
# Outline: as §1
binder,measurement,setting,value
B1,glycan array binding signal (z-score),GalNAc(b1-3)Gal,0.356
same,glycan array binding signal (z-score),[1],0.271
same,glycan array binding signal (z-score),[2],-0.07
same,glycan array binding signal (z-score),[3],-0.06
same,glycan array binding signal (z-score),GalNAc(b1-3)GalNAc,0.569
same,glycan array binding signal (z-score),GalNAc(b1-3)GlcNAc,-0.841
same,glycan array binding signal (z-score),GalNAc(b1-4)Gal(b1-4)Glc,-0.159
same,glycan array binding signal (z-score),GalNAc(b1-4)GlcNAc,0.849
same,glycan array binding signal (z-score),[4],-0.381
same,glycan array binding signal (z-score),[5],2.64
same,glycan array binding signal (z-score),[6],0.853
same,glycan array binding signal (z-score),GalNAc(b1-4)GlcNAc6S,1.07
same,glycan array binding signal (z-score),GalNAc(b1-6)GalNAc,0.442
same,glycan array binding signal (z-score),GalNAc3S(b1-4)GlcNAc,0.427
same,glycan array binding signal (z-score),GalNAc3S(b1-4)GlcNAc3S,-0.774
same,glycan array binding signal (z-score),[7],-0.515
same,glycan array binding signal (z-score),GalNAc4S6S(b1-4)GlcNAc,-0.487
same,glycan array binding signal (z-score),GalNAc6S(b1-4)GlcNAc,-0.028
same,glycan array binding signal (z-score),Glc(a1-4)Glc,-0.561
same,glycan array binding signal (z-score),[8],0.448
same,glycan array binding signal (z-score),Glc(a1-6)Glc(a1-6)Glc,-0.519
same,glycan array binding signal (z-score),[9],-0.407
same,glycan array binding signal (z-score),Glc(b1-4)Glc,0.179
same,glycan array binding signal (z-score),Glc(b1-6)Glc,-0.859
same,glycan array binding signal (z-score),GlcA(b1-3)Gal,0.111
same,glycan array binding signal (z-score),GlcA(b1-3)GlcNAc,-1.04
same,glycan array binding signal (z-score),GlcA(b1-6)Gal,0.146
same,glycan array binding signal (z-score),[10],-0.312
same,glycan array binding signal (z-score),[11],-0.229
same,glycan array binding signal (z-score),[12],-0.139
same,glycan array binding signal (z-score),[13],-0.512
same,glycan array binding signal (z-score),[14],-0.622
same,glycan array binding signal (z-score),[15],-0.498
same,glycan array binding signal (z-score),[16],-1.06
same,glycan array binding signal (z-score),[17],-0.378
same,glycan array binding signal (z-score),[18],0.721
same,glycan array binding signal (z-score),[19],0.085
same,glycan array binding signal (z-score),[20],0.342

# Given as tab-separated lines: part of the list above.
binder	measurement	setting	value
B1	glycan array binding signal (z-score)	[1]	0.271
same	glycan array binding signal (z-score)	GalNAc(b1-3)GalNAc	0.569
same	glycan array binding signal (z-score)	GalNAc(b1-4)GlcNAc6S	1.07
